# “And” between values parts separate entries of the source, which are not always exact repeats. Equal entries are not always repeated. This list was built around the results that the source calls inconclusive (neither active nor inactive); the mix of calls is not that of the screen. A potency beside an inconclusive call is a rough fit, not a confirmed value. The source made the active and inactive calls. How the source made its calls: active means hit-call score of the fitted dose curve at least 0.9, where 1 is the maximum; inconclusive means response in the unintended direction; inactive means score below 0.9.
# Sequences of proteins named here, by UniProt entry; tags and fusion partners are left off. A change or cut given only in a name is not applied to a line headed by its entry.
# UniProt P13631, whole entry, looked up: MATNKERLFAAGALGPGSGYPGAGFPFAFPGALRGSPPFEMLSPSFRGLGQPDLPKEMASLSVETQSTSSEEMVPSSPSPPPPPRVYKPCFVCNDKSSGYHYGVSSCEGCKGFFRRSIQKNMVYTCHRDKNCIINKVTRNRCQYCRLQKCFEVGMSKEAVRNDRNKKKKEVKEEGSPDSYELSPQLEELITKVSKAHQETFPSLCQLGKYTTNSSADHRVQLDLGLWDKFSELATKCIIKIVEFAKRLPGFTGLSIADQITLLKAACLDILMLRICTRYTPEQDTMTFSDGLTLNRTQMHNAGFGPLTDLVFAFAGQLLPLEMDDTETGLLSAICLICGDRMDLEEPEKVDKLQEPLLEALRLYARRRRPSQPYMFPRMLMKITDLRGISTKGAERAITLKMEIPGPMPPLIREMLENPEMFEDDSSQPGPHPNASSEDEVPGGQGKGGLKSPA
# UniProt Q92753: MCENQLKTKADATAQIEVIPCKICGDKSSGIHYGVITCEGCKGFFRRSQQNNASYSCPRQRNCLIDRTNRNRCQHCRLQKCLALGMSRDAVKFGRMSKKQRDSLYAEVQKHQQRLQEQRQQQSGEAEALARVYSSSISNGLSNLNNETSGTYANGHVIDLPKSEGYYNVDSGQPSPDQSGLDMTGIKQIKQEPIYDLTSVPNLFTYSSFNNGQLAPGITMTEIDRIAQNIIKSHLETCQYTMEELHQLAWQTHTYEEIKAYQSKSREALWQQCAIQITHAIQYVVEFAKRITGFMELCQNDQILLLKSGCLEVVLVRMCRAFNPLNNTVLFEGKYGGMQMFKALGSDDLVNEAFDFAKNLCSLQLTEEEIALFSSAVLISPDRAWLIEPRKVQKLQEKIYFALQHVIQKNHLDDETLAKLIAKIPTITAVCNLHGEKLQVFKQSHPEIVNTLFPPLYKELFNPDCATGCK
# UniProt P51449: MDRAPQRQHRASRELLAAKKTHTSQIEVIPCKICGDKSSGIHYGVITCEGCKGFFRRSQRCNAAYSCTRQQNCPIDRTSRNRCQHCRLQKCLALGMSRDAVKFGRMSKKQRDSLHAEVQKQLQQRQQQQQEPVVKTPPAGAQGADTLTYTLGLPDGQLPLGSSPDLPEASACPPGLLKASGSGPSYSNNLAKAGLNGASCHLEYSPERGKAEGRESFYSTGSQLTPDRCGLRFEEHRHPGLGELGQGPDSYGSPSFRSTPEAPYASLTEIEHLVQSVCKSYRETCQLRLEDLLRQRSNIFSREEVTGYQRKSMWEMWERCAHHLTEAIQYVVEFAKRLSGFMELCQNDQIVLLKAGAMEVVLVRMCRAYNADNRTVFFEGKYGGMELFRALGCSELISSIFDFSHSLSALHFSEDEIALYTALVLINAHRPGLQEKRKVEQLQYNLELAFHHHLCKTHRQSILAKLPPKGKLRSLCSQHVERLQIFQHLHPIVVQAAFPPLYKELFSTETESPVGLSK
# UniProt P28702: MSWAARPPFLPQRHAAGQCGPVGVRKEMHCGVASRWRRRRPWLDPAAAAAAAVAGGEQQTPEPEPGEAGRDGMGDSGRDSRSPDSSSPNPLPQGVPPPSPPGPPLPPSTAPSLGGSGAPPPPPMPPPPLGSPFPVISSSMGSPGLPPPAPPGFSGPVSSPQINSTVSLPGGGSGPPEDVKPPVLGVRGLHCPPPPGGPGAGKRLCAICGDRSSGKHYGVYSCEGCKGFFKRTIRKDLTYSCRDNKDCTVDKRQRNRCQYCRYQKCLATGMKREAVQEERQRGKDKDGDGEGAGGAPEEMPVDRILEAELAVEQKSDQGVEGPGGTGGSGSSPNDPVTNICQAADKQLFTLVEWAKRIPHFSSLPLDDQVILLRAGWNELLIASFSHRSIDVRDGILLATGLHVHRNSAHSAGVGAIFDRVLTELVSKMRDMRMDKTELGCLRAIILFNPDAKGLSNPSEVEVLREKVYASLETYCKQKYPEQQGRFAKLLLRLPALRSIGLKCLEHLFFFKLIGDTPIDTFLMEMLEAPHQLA
# UniProt P10827: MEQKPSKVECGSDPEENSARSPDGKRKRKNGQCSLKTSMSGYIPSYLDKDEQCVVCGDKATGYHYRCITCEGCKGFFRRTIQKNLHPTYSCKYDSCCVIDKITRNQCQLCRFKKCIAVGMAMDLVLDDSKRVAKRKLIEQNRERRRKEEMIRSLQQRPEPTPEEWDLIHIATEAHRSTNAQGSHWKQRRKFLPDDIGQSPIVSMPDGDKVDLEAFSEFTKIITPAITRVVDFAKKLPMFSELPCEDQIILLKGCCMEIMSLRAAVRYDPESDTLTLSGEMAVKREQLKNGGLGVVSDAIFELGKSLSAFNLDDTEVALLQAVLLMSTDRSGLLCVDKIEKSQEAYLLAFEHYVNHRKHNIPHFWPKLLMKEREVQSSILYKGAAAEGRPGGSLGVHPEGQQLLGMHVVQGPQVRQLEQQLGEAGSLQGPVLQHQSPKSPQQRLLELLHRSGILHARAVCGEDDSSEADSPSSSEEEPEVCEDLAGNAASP
# UniProt P19793: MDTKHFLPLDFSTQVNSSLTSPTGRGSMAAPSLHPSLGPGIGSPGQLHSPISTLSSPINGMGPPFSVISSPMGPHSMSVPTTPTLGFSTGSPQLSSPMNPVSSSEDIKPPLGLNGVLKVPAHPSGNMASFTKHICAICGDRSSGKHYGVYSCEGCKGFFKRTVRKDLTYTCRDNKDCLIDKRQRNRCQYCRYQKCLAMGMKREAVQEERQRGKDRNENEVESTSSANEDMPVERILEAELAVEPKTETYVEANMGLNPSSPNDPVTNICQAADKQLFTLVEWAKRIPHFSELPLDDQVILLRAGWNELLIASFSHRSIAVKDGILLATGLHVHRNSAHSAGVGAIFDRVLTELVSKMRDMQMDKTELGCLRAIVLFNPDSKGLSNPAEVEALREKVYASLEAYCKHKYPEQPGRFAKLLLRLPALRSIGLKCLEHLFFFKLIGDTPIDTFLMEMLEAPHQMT
# UniProt P11473: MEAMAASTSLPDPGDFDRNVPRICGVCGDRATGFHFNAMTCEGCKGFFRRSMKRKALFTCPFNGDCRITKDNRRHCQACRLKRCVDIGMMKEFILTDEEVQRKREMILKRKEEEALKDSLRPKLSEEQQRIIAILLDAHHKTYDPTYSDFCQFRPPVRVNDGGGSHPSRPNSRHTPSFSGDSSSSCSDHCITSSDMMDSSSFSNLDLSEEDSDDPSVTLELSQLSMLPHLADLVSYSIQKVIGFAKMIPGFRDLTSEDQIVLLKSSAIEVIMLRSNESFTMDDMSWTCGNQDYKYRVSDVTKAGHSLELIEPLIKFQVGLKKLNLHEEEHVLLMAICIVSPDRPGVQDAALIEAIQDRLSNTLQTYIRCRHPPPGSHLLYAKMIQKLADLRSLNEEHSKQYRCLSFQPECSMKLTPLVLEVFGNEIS
# What was measured:
# [1] = biological target: human Retinoic Acid Receptor gamma (RARg), RARG (gene 5916) (UniProt P13631); experiment: ATG_RARg_TRANS: Attagene TRANS-FACTORIAL HepG2 Assay for human Retinoic Acid Receptor gamma (RARg) (AID 2283009);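 on AC50: AC50 is for reporter induction above DMSO meaning RARg activation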
# Procedure, shortened: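 Transient transfection of HepG2 with multi-reporter constructs, then 24 h chemical treatment. Total RNA isolated, reverse-transcribed, PCR-amplified, fluorescently labelled and resolved by capillary electrophoresis; activity scored as mRNA induction versus DMSO.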
# [2] = biological target: human RAR-related Orphan Receptor beta (RORb), RORB (gene 6096) (UniProt Q92753); experiment: ATG_RORb_TRANS: Attagene TRANS-FACTORIAL HepG2 Assay for human RAR-related Orphan Receptor beta (RORb) (AID 2283010);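 on AC50: potency for increased reporter mRNA meaning activation of RORb-Gal4 chimera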
# Procedure, shortened: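 Readout is reporter-gene mRNA induction, detected as fluorescence after RT-PCR and capillary electrophoresis, fitted for gain of signal against DMSO controls. Transiently transfected HepG2 liver cells carrying GAL4-UAS reporter constructs were treated for 24 hours.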
# [3] = biological target: human RAR-related Orphan Receptor gamma (RORg), RORC (gene 6097) (UniProt P51449); experiment: ATG_RORg_TRANS: Attagene TRANS-FACTORIAL HepG2 Assay for human RAR-related Orphan Receptor gamma (RORg) (AID 2283011);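 on AC50: potency for induction of reporter transcripts above DMSO so activators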
# Procedure, shortened: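 First, HepG2 liver cells were transfected with GAL4-UAS-driven reporter constructs and the RORg-Gal4 fusion. Next, they were treated with chemical for 24 h. Finally, reporter mRNA was quantified by RT-PCR and capillary electrophoresis, with upward activity fitted against DMSO.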
# [4] = biological target: human Retinoid X Receptor beta (RXRb), RXRB (gene 6257) (UniProt P28702); experiment: ATG_RXRb_TRANS: Attagene TRANS-FACTORIAL HepG2 Assay for human Retinoid X Receptor beta (RXRb) (AID 2283013)
# Procedure, shortened: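 Transfect HepG2 with GAL4-UAS multi-reporter constructs (chimeric NR-Gal4, TRANS format); dose compound 24 h; isolate RNA, RT-PCR, FAM primer extension, HpaI digest; quantify by capillary electrophoresis; positive direction vs DMSO.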
# [5] = biological target: human Thyroid Receptor alpha (THRa1), THRA (gene 7067) (UniProt P10827); experiment: ATG_THRa1_TRANS: Attagene TRANS-FACTORIAL HepG2 Assay for human Thyroid Receptor alpha (THRa1) (AID 2283014)
# Procedure, shortened: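 Reporter transcript induction, read by capillary electrophoresis of 6-FAM-labelled RT-PCR products, reflects activity of a transfected THRa1-Gal4 fusion in HepG2 liver cells. Cells were dosed for 24 h; activity was fitted in the positive direction against DMSO.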
# [6] = biological target: Retinoic acid receptor RXR-alpha (Homo sapiens) (UniProt P19793); experiment: ATG_RXRa_TRANS: Attagene TRANS-FACTORIAL HepG2 Assay for human Retinoid X Receptor alpha (RXRa) (AID 2283012)
# Procedure, shortened: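 Transient transfection of human HepG2 with multiple GAL4-UAS reporter constructs; 24 h compound exposure; total RNA isolated, reverse-transcribed, PCR-amplified, 6-FAM labelled, HpaI-cut, resolved by capillary electrophoresis. Positive-direction fit versus DMSO.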
# [7] = biological target: human Vitamin D Receptor (VDR), VDR (gene 7421) (UniProt P11473); experiment: ATG_VDR_TRANS: Attagene TRANS-FACTORIAL HepG2 Assay for human Vitamin D Receptor (VDR) (AID 2283022)
# Procedure, shortened: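 Steps: transfect HepG2 with GAL4-UAS-driven reporter constructs; dose compounds 24 h; isolate RNA, reverse-transcribe, PCR-amplify with 6-FAM-labelled primer extension and HpaI digestion; quantify fragments by capillary electrophoresis relative to DMSO.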
smiles,measurement,setting,value
CN(C(=O)C(F)(F)C(F)(F)C(F)(F)F)[Si](C)(C)C,AC50,[1],inconclusive: 150 µM
same,AC50,[2],inconclusive: 150 µM
same,AC50,[3],inconclusive: 150 µM
same,AC50,[4],inconclusive: 150 µM
COC(=O)Nc1ccc(Cl)c(Cl)c1,AC50,[1],inconclusive: 164 µM
same,AC50,[2],inconclusive: 100 µM
same,AC50,[3],inconclusive: 100 µM
same,AC50,[4],active: 45.1 µM
same,outcome,[5],inactive
CC(C)(c1ccc(Oc2ccc(N)cc2)cc1)c1ccc(Oc2ccc(N)cc2)cc1,AC50,[1],inconclusive: 0.0449 µM
same,AC50,[2],inconclusive: 11.1 µM
same,outcome,[3],inactive
same,outcome,[6],inactive
same,outcome,[5],inactive
CC(C)(C)C(=O)CC(=O)C(F)(F)C(F)(F)C(F)(F)F,outcome,[1],inactive
same,outcome,[2],inactive
same,outcome,[3],inactive
same,AC50,[6],inconclusive: 50 µM
same,AC50,[5],inconclusive: 50 µM
O=C1NC(=O)[C@@H]2CC=CC[C@H]12,AC50,[1],inconclusive: 33.3 µM
same,AC50,[2],inconclusive: 19.8 µM
same,AC50,[3],inconclusive: 100 µM
same,outcome,[6],inactive
same,outcome,[5],inactive
O=C(O)C(F)(F)C(F)(F)C(F)(F)C(F)(F)C(F)(F)C(F)(F)C(F)(F)C(F)(F)Cl,outcome,[1],inactive
same,outcome,[2],inactive
same,outcome,[3],inactive
same,AC50,[4],active: 19.9 µM and active: 20.5 µM
same,AC50,[5],inconclusive: 7.65 µM
same,outcome,[5],inactive
Nc1ccc(-c2ccc(F)cc2)cc1,AC50,[1],inconclusive: 5.37 µM
same,AC50,[2],inconclusive: 0.0823 µM
same,outcome,[3],inactive
same,outcome,[4],inactive
same,outcome,[5],inactive
same,AC50,[7],inconclusive: 0.258 µM
CCC(=O)OCCC(C)CCC=C(C)C (centres undefined),AC50,[1],inconclusive: 100 µM
same,AC50,[2],inconclusive: 48.8 µM
same,AC50,[3],inconclusive: 100 µM
same,AC50,[5],inconclusive: 0.147 µM
CCCCCC1CCCC(=O)O1 (centres undefined),outcome,[1],inactive
same,AC50,[2],inconclusive: 100 µM
same,AC50,[3],inconclusive: 100 µM
same,AC50,[5],inconclusive: 100 µM
O=C(O)c1cc(Cl)cc([N+](=O)[O-])c1Cl,AC50,[1],inconclusive: 100 µM
same,AC50,[2],inconclusive: 100 µM
same,AC50,[3],inconclusive: 100 µM
same,AC50,[4],inconclusive: 179 µM
same,outcome,[5],inactive
Cc1[nH]cnc1C[C@H]1CCc2c(C)c3ccccc3n2C1=O,outcome,[1],inactive
same,AC50,[2],inconclusive: 8.21 µM
same,AC50,[3],inconclusive: 29.6 µM
same,outcome,[4],inactive
same,outcome,[5],inactive
CC1=CC[C@@]23C[C@@H]1C(C)(C)[C@@H]2CC[C@H]3C,AC50,[1],inconclusive: 0.49 µM
same,outcome,[2],inactive
same,outcome,[3],inactive
same,AC50,[4],active: 58.9 µM
same,AC50,[5],inconclusive: 47.3 µM
O=C(OCc1ccccc1)c1ccccc1,AC50,[1],inconclusive: 146 µM
same,AC50,[2],inconclusive: 181 µM
same,AC50,[3],inconclusive: 100 µM
same,outcome,[4],inactive
same,outcome,[7],inactive
CCC(=O)OCc1ccc(OC)cc1,outcome,[1],inactive
same,AC50,[2],inconclusive: 100 µM
same,outcome,[3],inactive
same,AC50,[5],inconclusive: 180 µM
same,AC50,[7],inconclusive: 100 µM
O=C(c1ccc(O)cc1)c1ccc(O)cc1O,AC50,[1],inconclusive: 14.2 µM
same,outcome,[2],inactive
same,AC50,[3],inconclusive: 100 µM
same,outcome,[5],inactive
FC(F)(F)COCC(F)(F)F,AC50,[1],inconclusive: 0.0595 µM
same,outcome,[2],inactive
same,AC50,[3],inconclusive: 150 µM
same,AC50,[4],inconclusive: 150 µM
same,AC50,[5],inconclusive: 150 µM
same,outcome,[7],inactive
O=C(C1CCCCC1)N1CC(=O)N2CCc3ccccc3C2C1 (centres undefined),outcome,[1],inactive
same,AC50,[2],inconclusive: 100 µM
same,AC50,[3],inconclusive: 100 µM
same,AC50,[5],inconclusive: 100 µM
CCc1ncc(C)[nH]1,AC50,[1],inconclusive: 100 µM
same,AC50,[2],inconclusive: 100 µM
same,AC50,[3],inconclusive: 100 µM
same,AC50,[4],inconclusive: 100 µM
same,AC50,[7],inconclusive: 100 µM

# A run of entries from the list above, as a working copy:
smiles,measurement,setting,value
CC(C)(c1ccc(Oc2ccc(N)cc2)cc1)c1ccc(Oc2ccc(N)cc2)cc1,AC50,[1],inconclusive: 0.0449 µM
same,AC50,[2],inconclusive: 11.1 µM
same,outcome,[3],inactive
same,outcome,[6],inactive
same,outcome,[5],inactive
CC(C)(C)C(=O)CC(=O)C(F)(F)C(F)(F)C(F)(F)F,outcome,[1],inactive
same,outcome,[2],inactive
